{"source": "paper PMC9560165", "target": "EGFP-TEV-sNASP (human) (UniProt P49321)", "assay": "co-IP + co-sedimentation; GFP-Trap pull-down of eGFP-sNASP from transiently transfected HEK293-F cells, TEV release, 4–20% glycerol gradient (240,000 × g, 14 hr, 4°C); SDS-PAGE, silver stain and Western blot of fractions", "note": "Results are given in words; binding and its absence hold for the method and conditions named. Binding seen in cells or lysates may run through a third protein. Some binding calls cover weakened binding; strength is not graded here.", "data": [{"binder": "UBR7 (protein, UniProt Q8N806 1-425) MAGAEGAAGRQSELEPVVSLVDVLEEDEELENEACAVLGGSDSEKCSYSQGSVKRQALYACSTCTPEGEEPAGICLACSYECHGSHKLFELYTKRNFRCDCGNSKFKNLECKLLPDKAKVNSGNKYNDNFFGLYCICKRPYPDPEDEIPDEMIQCVVCEDWFHGRHLGAIPPESGDFQEMVCQACMKRCSFLWAYAAQLAVTKISTEDDGLVRNIDGIGDQEVIKPENGEHQDSTLKEDVPEQGKDDVREVKVEQNSEPCAGSSSESDLQTVFKNESLNAESKSGCKLQELKAKQLIKKDTATYWPLNWRSKLCTCQDCMKMYGDLDVLFLTDEYDTVLAYENKGKIAQATDRSDPLMDTLSSMNRVQQVELICEYNDLKTELKDYLKRFADEGTVVKREDIQQFFEEFQSKKRRRVDGMQYYCS", "values": [{"measurement": "binding", "result": "binds"}]}]}
